Data: paper PMC5256923, “RNA and DNA Targeting by a Reconstituted Thermus thermophilus Type III-A CRISPR-Cas System” (PLoS ONE, 2017)
No constants are given. Whether binding was seen depends on the method and setting. Binding seen in cells or lysates may run through a third protein. These calls come from enrichment with a bait or labelling near it, and not all partners need be listed. Tags and fused reporters may be left off the sequences shown.

T1: T. thermophilus Csm5 with a C-terminal HRV 3C protease site and His10 tag (T. thermophilus) (UniProt Q53W18)
T1 sequence: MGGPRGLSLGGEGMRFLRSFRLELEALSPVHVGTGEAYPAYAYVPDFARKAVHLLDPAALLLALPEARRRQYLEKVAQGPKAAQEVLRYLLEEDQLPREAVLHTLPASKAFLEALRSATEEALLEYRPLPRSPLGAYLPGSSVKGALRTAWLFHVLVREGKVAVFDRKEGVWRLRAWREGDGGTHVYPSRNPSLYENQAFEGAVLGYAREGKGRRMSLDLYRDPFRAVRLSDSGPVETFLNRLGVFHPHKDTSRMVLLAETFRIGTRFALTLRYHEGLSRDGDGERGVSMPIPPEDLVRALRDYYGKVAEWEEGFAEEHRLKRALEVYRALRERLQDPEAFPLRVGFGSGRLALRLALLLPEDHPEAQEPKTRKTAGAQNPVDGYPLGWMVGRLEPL

B1: T. thermophilus Cas10/Csm1 (natural protein, UniProt Q53W19 1-805, looked up)
chain: MLGDGLSVALAGLLHDVGKLYSRARWGERDDQVPDRTHTAYTAHFVREHAGLFRGAGLDPDWLARTASRHHEGWRDRPQYRPETPEEWCVALADTYASKEREEGEGGGSPPEVPLSPPFRRLLLGGEEGREGGYSPVGAGGRVGLEAGGLYPEERPNVSKDVYKRLLERLEGRLEEMARFSLGKEALVLNLALALQETLSLVPSDTQSEPDVSLYDHLRLTAAIAHALWLFHGGSPSAQNLRQDGEKFLLVVGDMGGIQGHIYRIAGAEAGVGGIAKRLRARSLEVSLAAEAMALGLLWRLGLTSLNRILGAGGKFYLLLPNTEEARAALEGTREAWGRWALKRGGSLVPHLAWVAFRGQDFRDFAALLKRLHEALAREKLRPFAFLASTGGVLGAPLRPCAACGLEPARRDEPGSLCPDCEREAALGARLPRSDRVGFFLEEAPRPYLDFPGLKVGLGGPLEGAFHLFRARLDFAPWPDPSEAKPLLGHLPRVEHALKAKGWSLEAYRAWAEEEGLLEDEEPHPEKVLTFAELAALSEGAPYLGALMLDADRMGEAFATGFRREGRDLATPSRLAALSRTLEVFFTTEVLTLLEEPRRYRERLGWDDLEAQRKEARYPLLYSVYSGGDDLFLLGPWDALLDFALDLERLYRLFTRHPRLTLSGGFLLVPPSLPVPELARLLGEAEKRAKAEGRERLFLFGQAVPWETLRGLRAWAEGLRQDLRAERVSRAQVYRWLLLWRRFSPLEDPGERMRYKPLLAYALRRVRERDEEAWKRYLKLLDHQDPAWAYLPVWVQWALYRERRV
notes: Cas10/Csm1 of Thermus thermophilus (locus TTHB147), codon-optimized gene; also called TTHB147; source: E. coli BL21(λDE3), co-expressed with the other Csm subunits, Cas6A and crRNA 4.5; in lysate, and co-purified in the TthCsm complex (Ni-NTA, Superose 6)

Target: T1, T. thermophilus Csm5 with a C-terminal HRV 3C protease site and His10 tag (T. thermophilus)
Test: affinity purification with mass spectrometry; five Csm subunits, Cas6A and crRNA 4.5 co-expressed in E. coli; complex isolated from the lysate on Ni-NTA by the His10 tag on Csm5, washed with 500 mM KCl, tag cleaved, Superose 6; subunits found by SDS-PAGE and LC-MS/MS of a trypsin digest

| Molecule | binding |
| --- | --- |
| T. thermophilus Csm2 | binds |
| B1 | binds |
